# Assay results taken from PubChem BioAssay AID504834 (National Center for Advancing Translational Sciences (NCATS), 2011).
# Hit rate of the full screen: of about 320,000 compounds, about 22,000 (6.9%) were called active. This list was built around the results that the source calls inconclusive (neither active nor inactive); the mix of calls is not that of the screen. Calls come from the whole dose curve; as a rule, active = well fitted inhibition curve with a large enough effect; inconclusive = small, poorly fitted or top-dose-only effect, or another doubt; inactive = no such curve, though single readings can be large or run the other way. A potency beside an inconclusive call is a rough fit, not a confirmed value.
# Assay: Primary qHTS for delayed death inhibitors of the malarial parasite plastid, 96 hour incubation
# Conditions: P. falciparum luciferase reporter growth; series mostly up to 28.7 µM
# In short: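 Parasite growth measured via integrated firefly luciferase reporter in P. falciparum. Infected erythrocytes at 2% hematocrit, 0.05% parasitemia final were treated 96 hours at 37 C under 5% CO2, and luminescence was read.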
# Potency is the fitted concentration of half-maximal effect.
row,Compound,Potency
1,CCCn1c(=O)c2sccc2n2c(CCCC(=O)NCC3CCCO3)nnc12 (stereo not given),"inconclusive: 10.4 µM [inhibitor, partial curve, poor fit]"
2,CC(C)[C@H](NC(=O)[C@@H]1Cc2ccccc2CN1C(=O)OC(C)(C)C)C(=O)NCc1ccco1,"inconclusive: 10.4 µM [inhibitor, single point]"
3,Cn1ncc(N)c1C(=O)Nc1cccc(C(F)(F)F)c1,"inconclusive: 4.15 µM [inhibitor, single point]"
4,O=c1c(-c2ccc3c(c2)OCCO3)coc2cc(OC3OC(CO)C(O)C(O)C3O)ccc12 (stereo not given),inactive
5,COC(=O)c1sc2ncn(-n3c(C)ccc3C)c(=O)c2c1C,"inconclusive: 10.4 µM [inhibitor, single point]"
6,CNC(=O)COc1coc(CN2CCN(c3ccccc3)CC2)cc1=O,inactive
7,COc1cc(CCC(=O)Nc2c(C(=O)N3CCN(c4ccccc4OC)CC3)oc3ccccc23)on1,"inconclusive: 18.5 µM [inhibitor, single point]"
8,C/C=C(\C)CN1CCC(Oc2cccc(C(=O)NCc3ccccn3)c2)CC1,inactive
9,COCCN(C(=O)c1ccccc1OC1CCN(S(C)(=O)=O)CC1)C(C)C,"inconclusive: 18.5 µM [inhibitor, single point]"
10,Cc1ccc(NC(=O)C2Cc3ccccc3CN2C(=O)c2ccccc2)cc1Cl (stereo not given),"inconclusive: 14.7 µM [inhibitor, single point]"
11,CSc1ccc(S(=O)(=O)Nc2c(C)cccc2C)cc1,"inconclusive: 18.5 µM [inhibitor, partial curve, poor fit]"
12,Cc1ccc(S(=O)(=O)N(CC(=O)N2CCCC2)C2CCCCC2)cc1,active: 11.7 µM
13,Cc1cc(N2CCN(C(c3ccccc3)c3ccccc3)CC2)n2ncnc2n1,inactive
14,CCOc1ccc(/C=N/NC(=O)c2ccc(CSc3nc4ccccc4[nH]3)cc2)cc1,inactive
15,O=C(Nc1ccccc1C(F)(F)F)c1cc2ccccc2o1,"inconclusive: 14.7 µM [inhibitor, single point]"
16,O=C(Nc1ccc(S(=O)(=O)Nc2ncccn2)cc1)c1cccc(S(=O)(=O)N2CCOCC2)c1,inactive
17,COc1ccc(-c2cc3nc4n(c(=O)c3s2)CCC4)cc1,"inconclusive: 9.28 µM [inhibitor, single point]"
18,COc1ccc(C2=NO[C@@H]3C(=O)N(c4c(C)cccc4C)C(=O)[C@H]23)cc1OC,inactive
19,CCc1ccc(OC2=NS(=O)(=O)c3ccccc32)cc1,"inconclusive: 1.31 µM [inhibitor, single point]"
20,Cc1cc2c(cc1C)/C(=N/NC(=O)c1ccccn1)CCC2,"inconclusive: 9.28 µM [inhibitor, partial curve]"
21,O=C(CCNC(=O)c1ccc(Cl)cc1)NCCCN1CCOCC1,inactive
22,CCOC(=O)c1ccccc1NC(=O)COC(=O)CCNS(=O)(=O)c1ccc(C)c(C)c1,inactive
23,COc1ccc2nc(NC(=O)CCNC(=O)c3ccccc3Cl)sc2c1,inactive
24,O=C(NC(=S)NC1CCCCC1)c1ccc(Cl)cc1,"inconclusive: 16.5 µM [inhibitor, single point]"

row,Compound,Potency
1,Cc1ccccc1N(CC(=O)Nc1ccccc1C(=O)NCc1ccco1)S(=O)(=O)c1ccccc1,"inconclusive: 2.94 µM [inhibitor, full curve, poor fit]"
2,COc1ccccc1Nc1ccncc1[N+](=O)[O-],"inconclusive: 3.7 µM [inhibitor, full curve]"
3,O=C(OCc1nc(-c2ccccc2)oc1COC(=O)c1ccco1)c1ccco1,"inconclusive: 2.62 µM [inhibitor, single point]"
4,CCN1CCN(CCCNC(=O)c2ccc3c(=O)n(CCc4ccccc4)c(=O)[nH]c3c2)CC1,"inconclusive: 11.7 µM [inhibitor, single point]"
5,Cn1c(CCNC(=O)c2ccco2)nc2ccccc21,"inconclusive: 9.28 µM [inhibitor, single point]"
6,Clc1ccc(-c2n[nH]c3c2Cc2ccccc2-3)cc1Cl,"inconclusive: 18.5 µM [inhibitor, single point]"
7,Cc1ccc(NC(=S)N(CCCN2CCN(C)CC2)Cc2cccs2)cc1,inactive
8,COc1cccc(CN(C)C(=O)c2ccccc2Sc2ccccc2C#N)c1OC,inactive
9,CCCOc1ccc(N/C=C/C(=O)C(C)(C)C)cc1,inactive
10,CC(=O)N1CCC(=NNS(=O)(=O)c2cccc([N+](=O)[O-])c2)CC1,inactive
11,COc1ccc(NC(=O)CC2CCCC2)cc1S(=O)(=O)N1CCCCC1,"inconclusive: 9.28 µM [inhibitor, partial curve, poor fit]"
12,Cc1ccc(S(=O)(=O)NCCC(=O)NCC(c2ccco2)N2CCCCC2)cc1C (stereo not given),"inconclusive: 10.4 µM [inhibitor, single point]"
13,Cc1ccc(C)c(C2NC(=O)c3ccccc3N2)c1 (stereo not given),inactive
14,O=C(CNC(=O)c1ccc([N+](=O)[O-])cc1)N/N=C/c1c[nH]c2ccccc12,inactive
15,CSc1ccc(Cl)c(C(=O)NCCOc2cc(C(C)C)ccc2C)c1,"inconclusive: 18.5 µM [inhibitor, single point]"
16,CCN(C(=O)c1ccc(S(C)(=O)=O)cc1)C12CC3CC(CC(C3)C1)C2,"inconclusive: 18.5 µM [inhibitor, single point]"
17,O=C(c1ccccc1Sc1cccc2ccccc12)N1CCOCC1,"inconclusive: 6.57 µM [inhibitor, partial curve, poor fit]"
18,N#CCOc1ccccc1P(=O)(c1ccccc1)c1ccccc1,inactive
19,CCOC(=O)Cn1c(=O)oc2cc(S(=O)(=O)NCCC(C)C)ccc21,"inconclusive: 9.28 µM [inhibitor, partial curve, poor fit]"
20,COC(=O)C1=CN(C2CC2)C=C(C(=O)OC)C1c1ccc(C(F)(F)F)cc1,"inconclusive: 1.31 µM [inhibitor, partial curve, poor fit]"
21,N#C/C(=C\c1cccc([N+](=O)[O-])c1)c1nnc2n1CCCCC2,inactive
22,Cc1ccc(CNC(=O)C2CCN(c3nn4c(=O)cc(C)nc4s3)CC2)cc1,inactive
23,O=C(C1=C[C@H](C2CCCCC2)C[C@H](OCCCCO)O1)N1CCN(Cc2ccccc2)CC1,"inconclusive: 11.7 µM [inhibitor, partial curve]"
24,CN1CCC(OC(=O)c2ccco2)CC1,inactive

# 3 records picked at random from the list so far:
row,Compound,Potency
21,O=C(CCNC(=O)c1ccc(Cl)cc1)NCCCN1CCOCC1,inactive
6,Clc1ccc(-c2n[nH]c3c2Cc2ccccc2-3)cc1Cl,"inconclusive: 18.5 µM [inhibitor, single point]"
23,COc1ccc2nc(NC(=O)CCNC(=O)c3ccccc3Cl)sc2c1,inactive

# Following part.

row,Compound,Potency
1,COc1ccc(OCCN(C)CC(=O)Nc2c(C)cccc2C)cc1,inactive
2,Cc1ccccc1N(C(=O)Cc1cccs1)C(C(=O)NCC1CCCO1)c1cccnc1 (stereo not given),"inconclusive: 0.0586 µM [inhibitor, full curve, poor fit]"
3,CC(C)NC(=O)/C(=C/c1ccco1)c1ccccc1,"inconclusive: 13.1 µM [inhibitor, single point]"
4,CSc1ccc(CN(C)C(C)C(=O)NCc2ccccc2)cc1 (stereo not given),"inconclusive: 14.7 µM [inhibitor, partial curve, poor fit]"
5,CCOc1ccc(C2Oc3nc(SC)nnc3-c3ccccc3N2C(C)=O)cc1OC (stereo not given),"inconclusive: 18.5 µM [inhibitor, partial curve, poor fit]"
6,CCOC(=O)c1cn(-c2ccccc2)nc1-c1cccnc1,"inconclusive: 4.15 µM [inhibitor, partial curve, poor fit]"
7,CC(C)c1ccc(C(C(=O)NC2CCCC2)N(C(=O)c2csnn2)C2CC2)cc1 (stereo not given),"inconclusive: 11.7 µM [inhibitor, partial curve, poor fit]"
8,CCCn1ncc(C(=O)O)c1C,"inconclusive: 18.5 µM [inhibitor, single point]"
9,Cc1ccc(S(=O)(=O)/N=C2\C(=O)c3ccccc3C([O-])=C2n2cc[n+](CCC(C)C)c2)cc1,active: 3.29 µM
10,O=c1ccc2c(o1)/C(=C/C=C(Cl)Cl)CCC2,"inconclusive: 10.4 µM [inhibitor, single point]"
11,CC(C)CN1CCC(CNC(=O)CCc2nnc(Cc3c[nH]c4ccccc34)o2)CC1,"inconclusive: 18.5 µM [inhibitor, single point]"
12,COc1cc(/C=N/NC2=NS(=O)(=O)c3ccccc32)ccc1OC(C)=O,"inconclusive: 14.7 µM [inhibitor, partial curve, poor fit]"
13,C=CCn1cnc2scc(-c3ccc(C)cc3)c2c1=O,"inconclusive: 18.5 µM [inhibitor, single point]"
14,Cc1cc2c(s1)c1c(n2C)C(=O)N(Cc2ccccc2F)C1,"inconclusive: 5.86 µM [inhibitor, partial curve, poor fit]"
15,O=C(N/N=C/c1ccc[nH]1)c1cc2ccccc2cc1O,inactive
16,Cc1ccc(Cc2c(C)c(C#N)c3[nH]c4ccccc4n3c2=O)cc1,"inconclusive: 10.4 µM [inhibitor, partial curve]"
17,COc1ccc(Cl)cc1S(=O)(=O)NC(C)C(=O)NCc1cccnc1 (stereo not given),inactive
18,COc1ccc(Nc2ncnc3c2oc2ccccc23)cc1,inactive
19,C#CCn1cc(C=C2C(=O)c3ccccc3C2=O)c2ccccc21,"inconclusive: 1.04 µM [inhibitor, partial curve, poor fit]"
20,CCCS(=O)(=O)c1ncc(Cl)c(C(=O)Nc2ccc(S(=O)(=O)Nc3ncccn3)cc2)n1,"inconclusive: 1.47 µM [inhibitor, full curve]"
21,COc1ccc(C2Nc3ccccc3C(=O)N2c2ccccc2)cc1Cn1cc([N+](=O)[O-])cn1 (stereo not given),active: 5.22 µM
22,COc1cc(C2NC(=S)NC(c3ccccc3)=C2C(C)=O)cc(Br)c1OCC(N)=O (stereo not given),"inconclusive: 13.1 µM [inhibitor, single point]"
